# In article PMC8982737, “Discovery of S-217622, a Noncovalent Oral SARS-CoV-2 3CL Protease Inhibitor Clinical Candidate for Treating COVID-19” (Journal of Medicinal Chemistry, 2022):
# Experiment: in vitro
# Conditions: African green monkey
smiles,measurement,value
"CCC(CC)COC(=O)[C@H](C)N[P@](=O)(OC[C@H]1O[C@@](C#N)(c2ccc3c(N)ncnn23)[C@H](O)[C@@H]1O)Oc1ccccc1 [Remdesivir, reference compound]",CC50,> 100 µM
